# Source: the supplement of paper PMC10849652
# Protein sequences, listed by entry. Tags and fused reporters are not part of them. Lines headed by an entry give the natural chain unless they say otherwise; changes in a name come on top.
# UniProt P02042: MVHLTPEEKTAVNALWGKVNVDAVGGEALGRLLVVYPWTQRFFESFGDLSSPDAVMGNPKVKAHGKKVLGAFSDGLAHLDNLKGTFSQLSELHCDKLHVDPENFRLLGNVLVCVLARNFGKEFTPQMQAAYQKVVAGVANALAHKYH
# UniProt P78347: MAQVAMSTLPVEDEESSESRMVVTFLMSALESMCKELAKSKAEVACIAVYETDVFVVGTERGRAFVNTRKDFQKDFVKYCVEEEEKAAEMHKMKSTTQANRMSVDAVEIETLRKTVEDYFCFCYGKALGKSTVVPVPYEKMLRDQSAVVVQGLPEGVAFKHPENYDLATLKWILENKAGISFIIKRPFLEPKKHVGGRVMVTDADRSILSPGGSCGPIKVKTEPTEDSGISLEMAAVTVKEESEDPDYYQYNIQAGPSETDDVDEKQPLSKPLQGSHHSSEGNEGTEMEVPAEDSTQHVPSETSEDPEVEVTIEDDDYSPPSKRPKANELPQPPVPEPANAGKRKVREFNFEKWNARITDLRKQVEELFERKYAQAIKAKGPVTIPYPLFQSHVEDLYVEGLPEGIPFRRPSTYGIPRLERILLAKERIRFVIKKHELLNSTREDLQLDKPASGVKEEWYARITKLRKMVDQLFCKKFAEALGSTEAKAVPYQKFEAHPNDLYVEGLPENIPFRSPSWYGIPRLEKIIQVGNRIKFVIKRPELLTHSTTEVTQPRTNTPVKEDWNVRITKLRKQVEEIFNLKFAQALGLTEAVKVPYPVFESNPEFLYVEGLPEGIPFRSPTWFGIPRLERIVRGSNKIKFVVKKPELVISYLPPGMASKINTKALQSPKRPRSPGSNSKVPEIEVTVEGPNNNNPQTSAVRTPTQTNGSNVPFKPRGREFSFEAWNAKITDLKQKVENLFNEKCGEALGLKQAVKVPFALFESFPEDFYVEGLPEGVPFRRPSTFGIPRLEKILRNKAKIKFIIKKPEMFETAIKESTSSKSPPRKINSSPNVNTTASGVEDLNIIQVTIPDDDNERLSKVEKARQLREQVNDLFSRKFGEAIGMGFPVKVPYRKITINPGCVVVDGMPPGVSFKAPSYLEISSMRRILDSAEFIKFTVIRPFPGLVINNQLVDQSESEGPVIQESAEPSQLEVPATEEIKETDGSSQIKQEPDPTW
# UniProt P69892: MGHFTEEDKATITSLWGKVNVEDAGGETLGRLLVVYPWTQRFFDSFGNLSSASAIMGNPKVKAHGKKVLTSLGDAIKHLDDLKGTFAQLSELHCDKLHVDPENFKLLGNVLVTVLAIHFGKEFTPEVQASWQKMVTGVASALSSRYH
# UniProt Q969F1: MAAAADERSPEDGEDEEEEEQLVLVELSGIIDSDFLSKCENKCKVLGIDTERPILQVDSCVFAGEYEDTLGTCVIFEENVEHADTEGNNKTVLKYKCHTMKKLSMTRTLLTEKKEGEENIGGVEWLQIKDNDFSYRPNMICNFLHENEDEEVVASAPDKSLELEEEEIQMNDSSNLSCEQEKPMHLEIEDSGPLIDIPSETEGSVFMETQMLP
# UniProt Q9BSH5: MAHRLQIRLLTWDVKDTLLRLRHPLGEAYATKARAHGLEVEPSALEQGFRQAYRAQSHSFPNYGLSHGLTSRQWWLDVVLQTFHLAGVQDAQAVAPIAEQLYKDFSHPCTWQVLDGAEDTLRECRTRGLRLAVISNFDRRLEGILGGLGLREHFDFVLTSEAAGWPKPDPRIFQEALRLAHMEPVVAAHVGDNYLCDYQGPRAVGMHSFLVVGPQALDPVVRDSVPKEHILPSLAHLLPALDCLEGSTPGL
# UniProt Q8TDG4: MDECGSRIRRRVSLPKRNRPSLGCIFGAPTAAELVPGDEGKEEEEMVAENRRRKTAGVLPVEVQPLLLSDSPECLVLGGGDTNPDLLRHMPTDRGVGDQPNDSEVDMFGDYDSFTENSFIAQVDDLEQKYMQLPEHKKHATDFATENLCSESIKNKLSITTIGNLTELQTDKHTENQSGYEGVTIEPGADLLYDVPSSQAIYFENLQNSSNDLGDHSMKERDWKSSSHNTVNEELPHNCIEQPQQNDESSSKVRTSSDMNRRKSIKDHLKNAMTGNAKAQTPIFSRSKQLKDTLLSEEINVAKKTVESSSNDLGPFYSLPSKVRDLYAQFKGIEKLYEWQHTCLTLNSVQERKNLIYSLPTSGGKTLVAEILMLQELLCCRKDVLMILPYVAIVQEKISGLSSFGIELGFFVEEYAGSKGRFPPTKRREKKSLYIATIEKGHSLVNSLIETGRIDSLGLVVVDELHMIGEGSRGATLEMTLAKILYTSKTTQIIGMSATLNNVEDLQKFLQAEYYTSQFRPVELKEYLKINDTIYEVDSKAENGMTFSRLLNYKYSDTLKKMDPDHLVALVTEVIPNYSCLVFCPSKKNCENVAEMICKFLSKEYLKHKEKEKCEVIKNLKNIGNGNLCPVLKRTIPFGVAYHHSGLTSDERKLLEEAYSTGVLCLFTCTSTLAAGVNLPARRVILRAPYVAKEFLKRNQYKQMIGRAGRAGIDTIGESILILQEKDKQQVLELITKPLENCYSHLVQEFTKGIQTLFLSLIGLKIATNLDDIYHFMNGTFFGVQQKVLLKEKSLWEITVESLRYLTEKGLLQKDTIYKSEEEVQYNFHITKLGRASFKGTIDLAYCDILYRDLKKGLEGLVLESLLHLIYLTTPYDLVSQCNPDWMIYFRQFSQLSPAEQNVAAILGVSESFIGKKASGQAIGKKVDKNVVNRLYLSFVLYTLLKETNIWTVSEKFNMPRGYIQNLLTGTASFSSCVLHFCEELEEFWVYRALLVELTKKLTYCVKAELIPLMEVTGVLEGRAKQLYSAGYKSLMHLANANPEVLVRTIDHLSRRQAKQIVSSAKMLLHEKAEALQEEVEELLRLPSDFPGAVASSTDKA
# UniProt Q5T447: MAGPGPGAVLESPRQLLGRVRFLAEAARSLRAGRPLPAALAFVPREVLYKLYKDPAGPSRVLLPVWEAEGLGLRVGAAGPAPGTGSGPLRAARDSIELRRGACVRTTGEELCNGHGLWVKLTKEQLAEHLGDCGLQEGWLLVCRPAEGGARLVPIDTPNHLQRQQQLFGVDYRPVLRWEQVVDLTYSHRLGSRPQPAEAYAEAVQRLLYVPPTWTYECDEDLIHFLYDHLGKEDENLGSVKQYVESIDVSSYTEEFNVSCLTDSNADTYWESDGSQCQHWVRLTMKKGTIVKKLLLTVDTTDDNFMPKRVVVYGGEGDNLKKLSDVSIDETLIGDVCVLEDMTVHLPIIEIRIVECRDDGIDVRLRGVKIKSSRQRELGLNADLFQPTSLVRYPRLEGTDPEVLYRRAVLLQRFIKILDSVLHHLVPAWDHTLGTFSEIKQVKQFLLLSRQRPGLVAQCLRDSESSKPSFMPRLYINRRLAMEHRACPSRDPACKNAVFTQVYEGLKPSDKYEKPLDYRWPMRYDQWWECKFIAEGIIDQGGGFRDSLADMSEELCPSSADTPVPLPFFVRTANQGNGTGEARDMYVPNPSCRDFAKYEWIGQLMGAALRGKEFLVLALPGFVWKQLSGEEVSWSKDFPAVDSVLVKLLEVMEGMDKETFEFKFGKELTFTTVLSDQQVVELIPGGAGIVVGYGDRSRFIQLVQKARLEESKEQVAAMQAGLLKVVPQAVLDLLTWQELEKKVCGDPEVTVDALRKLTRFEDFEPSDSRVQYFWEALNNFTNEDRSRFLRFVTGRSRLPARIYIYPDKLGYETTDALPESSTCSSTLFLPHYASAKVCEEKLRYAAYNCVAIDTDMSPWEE
# UniProt P13984, whole entry, looked up: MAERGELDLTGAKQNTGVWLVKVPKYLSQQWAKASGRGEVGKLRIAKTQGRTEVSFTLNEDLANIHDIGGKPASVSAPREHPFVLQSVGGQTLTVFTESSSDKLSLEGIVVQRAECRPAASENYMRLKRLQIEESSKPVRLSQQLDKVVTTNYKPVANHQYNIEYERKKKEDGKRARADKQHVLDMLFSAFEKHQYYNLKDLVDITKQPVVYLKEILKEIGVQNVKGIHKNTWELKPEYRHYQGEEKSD
# UniProt Q7Z4H7: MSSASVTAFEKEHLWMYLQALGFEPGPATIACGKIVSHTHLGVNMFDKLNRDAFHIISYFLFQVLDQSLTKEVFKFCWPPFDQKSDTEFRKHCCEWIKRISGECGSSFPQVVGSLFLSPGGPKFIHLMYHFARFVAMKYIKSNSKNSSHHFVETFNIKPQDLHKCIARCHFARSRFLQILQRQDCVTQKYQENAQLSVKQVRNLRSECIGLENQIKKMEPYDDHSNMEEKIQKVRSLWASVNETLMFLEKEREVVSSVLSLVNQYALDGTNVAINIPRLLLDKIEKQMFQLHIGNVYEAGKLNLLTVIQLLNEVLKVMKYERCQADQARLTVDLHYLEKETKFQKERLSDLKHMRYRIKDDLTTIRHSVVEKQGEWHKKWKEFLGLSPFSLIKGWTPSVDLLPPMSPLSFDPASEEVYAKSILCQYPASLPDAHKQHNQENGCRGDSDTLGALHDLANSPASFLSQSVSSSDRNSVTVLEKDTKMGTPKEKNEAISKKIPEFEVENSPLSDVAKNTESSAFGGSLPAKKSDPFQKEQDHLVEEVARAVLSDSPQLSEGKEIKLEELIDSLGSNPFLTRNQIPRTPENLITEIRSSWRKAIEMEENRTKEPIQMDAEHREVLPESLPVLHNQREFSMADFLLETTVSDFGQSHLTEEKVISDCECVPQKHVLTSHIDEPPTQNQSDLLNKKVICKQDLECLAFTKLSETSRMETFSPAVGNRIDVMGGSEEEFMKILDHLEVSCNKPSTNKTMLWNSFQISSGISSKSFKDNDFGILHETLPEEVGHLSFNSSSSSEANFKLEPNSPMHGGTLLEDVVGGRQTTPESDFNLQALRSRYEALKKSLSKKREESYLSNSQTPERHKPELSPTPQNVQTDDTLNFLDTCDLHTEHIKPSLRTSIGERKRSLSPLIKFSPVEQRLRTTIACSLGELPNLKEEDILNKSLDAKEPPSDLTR
# UniProt P29083: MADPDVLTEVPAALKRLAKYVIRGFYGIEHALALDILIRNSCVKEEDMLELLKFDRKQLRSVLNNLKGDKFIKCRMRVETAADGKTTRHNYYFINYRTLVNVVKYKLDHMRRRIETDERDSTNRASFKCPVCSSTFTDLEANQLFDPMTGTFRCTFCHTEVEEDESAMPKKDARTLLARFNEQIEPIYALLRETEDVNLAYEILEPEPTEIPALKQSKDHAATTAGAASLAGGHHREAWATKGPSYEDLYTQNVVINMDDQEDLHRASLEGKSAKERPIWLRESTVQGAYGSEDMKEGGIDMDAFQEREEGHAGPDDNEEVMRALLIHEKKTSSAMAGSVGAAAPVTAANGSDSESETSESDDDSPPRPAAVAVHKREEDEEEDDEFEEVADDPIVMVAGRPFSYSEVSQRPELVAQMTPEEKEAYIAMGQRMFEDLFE
# UniProt Q9NYZ3: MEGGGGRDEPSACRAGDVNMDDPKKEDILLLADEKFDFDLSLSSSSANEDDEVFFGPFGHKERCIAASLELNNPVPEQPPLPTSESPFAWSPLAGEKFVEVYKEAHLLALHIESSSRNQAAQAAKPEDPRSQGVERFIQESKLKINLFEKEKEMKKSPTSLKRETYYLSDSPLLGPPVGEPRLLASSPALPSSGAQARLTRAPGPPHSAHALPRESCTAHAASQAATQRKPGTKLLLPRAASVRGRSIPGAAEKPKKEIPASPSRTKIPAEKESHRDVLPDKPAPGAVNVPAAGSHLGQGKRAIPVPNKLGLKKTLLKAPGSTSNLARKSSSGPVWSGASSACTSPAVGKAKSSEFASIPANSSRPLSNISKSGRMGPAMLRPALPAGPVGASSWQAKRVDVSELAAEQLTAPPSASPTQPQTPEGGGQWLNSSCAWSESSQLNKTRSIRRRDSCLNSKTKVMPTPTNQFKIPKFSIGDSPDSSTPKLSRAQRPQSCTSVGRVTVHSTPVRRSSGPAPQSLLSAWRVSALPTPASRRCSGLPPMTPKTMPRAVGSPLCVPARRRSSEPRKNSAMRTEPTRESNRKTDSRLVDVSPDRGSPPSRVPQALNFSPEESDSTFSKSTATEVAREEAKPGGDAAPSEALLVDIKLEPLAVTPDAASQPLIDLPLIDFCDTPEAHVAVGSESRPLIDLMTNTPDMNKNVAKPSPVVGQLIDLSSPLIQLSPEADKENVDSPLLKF
# UniProt Q16774: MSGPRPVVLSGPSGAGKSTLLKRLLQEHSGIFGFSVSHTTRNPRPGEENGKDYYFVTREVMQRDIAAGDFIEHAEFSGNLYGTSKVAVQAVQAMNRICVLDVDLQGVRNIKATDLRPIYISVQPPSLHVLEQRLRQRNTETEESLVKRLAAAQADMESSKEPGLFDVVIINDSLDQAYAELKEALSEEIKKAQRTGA
# UniProt P10412, whole entry, looked up: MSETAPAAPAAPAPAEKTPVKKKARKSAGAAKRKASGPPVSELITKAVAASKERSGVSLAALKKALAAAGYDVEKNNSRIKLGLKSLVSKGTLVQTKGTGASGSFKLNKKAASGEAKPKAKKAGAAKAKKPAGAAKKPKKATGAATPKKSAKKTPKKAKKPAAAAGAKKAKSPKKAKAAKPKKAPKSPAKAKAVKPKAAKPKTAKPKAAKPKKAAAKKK
# The other results are listed elsewhere or left out.
# Experiments:
# Experiment in all cases: log2 fold change, soluble protein after heating vs DMSO (PISA); higher = thermal stabilisation; K562 cells, 10 uM, 30 min; active = over 0.2 and 3.5 SD of the protein, either way, in both replicates (recomputed)
# [1] = compound: CC[C@@H]1C(=O)N(C)c2cnc(Nc3ccc(C(=O)NC4CCN(C)CC4)cc3OC)nc2N1C1CCCC1
# Procedure, shortened: (§1)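 K562 cells at 2×10^6 cells/mL were given 10 μM compound for 30 min. Aliquots then went through 3 min of heating across 48°C-58°C, were pooled, and were extracted in PBS with 0.5% NP-40 at 4°C, and the supernatant after 21,000xg for 90 min was quantified by TMTpro 16plex LC-MS/MS with channel sums equalised. Thermal stability relative to control samples, from duplicates, is given as log2 fold change.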
# volasertib = compound: CC[C@@H]1C(=O)N(C)c2cnc(Nc3ccc(C(=O)N[C@H]4CC[C@H](N5CCN(CC6CC6)CC5)CC4)cc3OC)nc2N1C(C)C [volasertib]
# Procedure, shortened: as §1
# [2] = compound: CC[C@H](C)N1C=C(C2=C(C=C(C=C21)C3=CN=C(C=C3)N4CCNCC4)C(=O)NCC5=C(C=C(NC5=O)C)C)C
# Procedure, shortened: as §1
# epoxomicin = compound: CC[C@H](C)[C@@H](C(=O)N[C@@H]([C@@H](C)O)C(=O)N[C@@H](CC(C)C)C(=O)[C@]1(CO1)C)NC(=O)[C@H]([C@@H](C)CC)N(C)C(=O)C [epoxomicin]
# Procedure, shortened: as §1
# [3] = compound: CCn1c(C(=O)N(C2CC2)C2CC2)cc2c3c(ncn3C)c(Nc3cc(C)n(C)n3)nc21
# Procedure, shortened: as §1
# [4] = compound: CCn1cc(-c2ccnc3[nH]c(-c4cccc(CN(C)C)c4)cc23)c(-c2ccc(NC(=O)N(C)C)cc2)n1
# Procedure, shortened: as §1
# [5] = compound: CN(C)CC(=O)Nc1ccc2[nH]c(=O)c3ccccc3c2c1
# Procedure, shortened: as §1
# rosiglitazone = compound: CN(CCOC1=CC=C(C=C1)C[C@H]2C(=O)NC(=O)S2)C3=CC=CC=N3 (racemic) [rosiglitazone]
# Procedure, shortened: as §1
# [6] = compound: CN1C2=C(C3=C1C(=O)N(N=C3)CC4=CC(=CC=C4)N)SC(=C2)S(=O)C
# Procedure, shortened: as §1
# [7] = compound: CN1CCC(CNc2ccc3ncc(-c4cccc(OC(F)(F)F)c4)n3n2)CC1
# Procedure, shortened: as §1
Target,log2 fold change [1],log2 fold change (volasertib),log2 fold change [2],log2 fold change (epoxomicin),log2 fold change [3],log2 fold change [4],log2 fold change [5],log2 fold change (rosiglitazone),log2 fold change [6],log2 fold change [7]
GSTM3 (UniProt P21266),inactive: -0.118,inactive: -0.323,inactive: 0.016,inactive: -0.001,inactive: 0.003,inactive: -0.062,inactive: 0.056,inactive: 0.104,inactive: -0.022,inactive: -0.106
HARS (UniProt P12081),inactive: 0.018,inactive: 0.077,inactive: -0.041,inactive: -0.003,inactive: 0.006,inactive: 0.004,inactive: -0.027,inactive: -0.02,inactive: -0.06,inactive: -0.022
HCLS1 (UniProt P14317),inactive: -0.034,inactive: -0.003,inactive: -0.022,inactive: -0.02,inactive: 0.04,inactive: 0.026,inactive: -0.048,inactive: -0.006,inactive: -0.036,inactive: -0.055
H1-3 (UniProt P16402),inactive: 0.094,inactive: 0.421,inactive: 0.024,inactive: -0.31,inactive: 0.014,inactive: 0.255,inactive: -0.059,inactive: -0.182,inactive: 0.216,inactive: 0.408
HBD (UniProt P02042),inactive: 0.077,inactive: 0.038,inactive: -0.018,inactive: 0.275,inactive: 0.017,inactive: -0.118,inactive: -0.006,inactive: 0.049,inactive: -0.013,inactive: 0.232
GTF3C1 (UniProt Q12789),inactive: 0.273,inactive: -0.179,inactive: -0.14,inactive: -0.144,inactive: -0.149,inactive: 0.035,inactive: -0.209,inactive: 0.23,inactive: 0.126,inactive: -0.264
GTF2I (UniProt P78347),inactive: -0.126,inactive: -0.109,inactive: 0.057,inactive: 0.028,inactive: -0.064,inactive: -0.035,inactive: 0.049,inactive: 0.073,inactive: 0.026,inactive: 0.089
HEXIM1 (UniProt O94992),inactive: 0.079,inactive: 0.16,inactive: -0.048,inactive: -0.059,inactive: -0.025,inactive: 0.148,inactive: -0.049,inactive: -0.041,inactive: -0.021,inactive: 0.089
HDGFL3 (UniProt Q9Y3E1),inactive: 0.015,inactive: 0.04,inactive: 0.008,inactive: -0.027,inactive: 0.052,inactive: 0.036,inactive: -0.029,inactive: 0.054,inactive: -0.05,inactive: -0.037
HBG2 (UniProt P69892),inactive: 0,inactive: -0.009,inactive: -0.002,inactive: 0.203,inactive: 0.076,inactive: -0.02,inactive: 0.018,inactive: -0.099,inactive: -0.06,inactive: 0.088
HERC4 (UniProt Q5GLZ8),inactive: -0.014,inactive: -0.096,inactive: 0.044,inactive: 0.03,inactive: 0.013,inactive: -0.014,inactive: 0.011,inactive: 0.009,inactive: -0.047,inactive: -0.028
HBS1L isoform 2 (UniProt Q9Y450),inactive: -0.08,inactive: -0.199,inactive: 0.019,inactive: 0.008,inactive: -0.046,inactive: -0.189,inactive: -0.082,inactive: 0.01,inactive: -0.198,inactive: -0.218
GTF3C6 (UniProt Q969F1),inactive: 0.061,inactive: -0.146,inactive: 0.213,inactive: -0.038,–,inactive: 0.272,inactive: -0.019,inactive: 0.047,inactive: 0.209,inactive: -0.311
HDHD3 (UniProt Q9BSH5),inactive: -0.009,inactive: 0.037,inactive: -0.013,inactive: -0.001,inactive: 0.01,inactive: -0.019,inactive: 0.06,inactive: 0.011,inactive: -0.002,inactive: 0.041
HERC1 (UniProt Q15751),inactive: -0.005,inactive: -0.185,inactive: 0.024,inactive: -0.08,inactive: 0.013,inactive: -0.01,inactive: -0.024,inactive: 0.025,inactive: 0.008,inactive: 0
HEPH isoform 3 (UniProt Q9BQS7),inactive: -0.08,inactive: -0.176,inactive: -0.009,inactive: 0.021,inactive: 0.012,inactive: -0.023,inactive: -0.035,inactive: 0.001,inactive: 0.056,inactive: 0.024

# A portion from the list above, for reference:
Target,log2 fold change [1],log2 fold change (volasertib),log2 fold change [2],log2 fold change (epoxomicin),log2 fold change [3],log2 fold change [4],log2 fold change [5],log2 fold change (rosiglitazone),log2 fold change [6],log2 fold change [7]
GTF2I (UniProt P78347),inactive: -0.126,inactive: -0.109,inactive: 0.057,inactive: 0.028,inactive: -0.064,inactive: -0.035,inactive: 0.049,inactive: 0.073,inactive: 0.026,inactive: 0.089
HEXIM1 (UniProt O94992),inactive: 0.079,inactive: 0.16,inactive: -0.048,inactive: -0.059,inactive: -0.025,inactive: 0.148,inactive: -0.049,inactive: -0.041,inactive: -0.021,inactive: 0.089
HDGFL3 (UniProt Q9Y3E1),inactive: 0.015,inactive: 0.04,inactive: 0.008,inactive: -0.027,inactive: 0.052,inactive: 0.036,inactive: -0.029,inactive: 0.054,inactive: -0.05,inactive: -0.037
HBG2 (UniProt P69892),inactive: 0,inactive: -0.009,inactive: -0.002,inactive: 0.203,inactive: 0.076,inactive: -0.02,inactive: 0.018,inactive: -0.099,inactive: -0.06,inactive: 0.088
HERC4 (UniProt Q5GLZ8),inactive: -0.014,inactive: -0.096,inactive: 0.044,inactive: 0.03,inactive: 0.013,inactive: -0.014,inactive: 0.011,inactive: 0.009,inactive: -0.047,inactive: -0.028
HBS1L isoform 2 (UniProt Q9Y450),inactive: -0.08,inactive: -0.199,inactive: 0.019,inactive: 0.008,inactive: -0.046,inactive: -0.189,inactive: -0.082,inactive: 0.01,inactive: -0.198,inactive: -0.218
GTF3C6 (UniProt Q969F1),inactive: 0.061,inactive: -0.146,inactive: 0.213,inactive: -0.038,–,inactive: 0.272,inactive: -0.019,inactive: 0.047,inactive: 0.209,inactive: -0.311
HDHD3 (UniProt Q9BSH5),inactive: -0.009,inactive: 0.037,inactive: -0.013,inactive: -0.001,inactive: 0.01,inactive: -0.019,inactive: 0.06,inactive: 0.011,inactive: -0.002,inactive: 0.041
HERC1 (UniProt Q15751),inactive: -0.005,inactive: -0.185,inactive: 0.024,inactive: -0.08,inactive: 0.013,inactive: -0.01,inactive: -0.024,inactive: 0.025,inactive: 0.008,inactive: 0

# Next entries follow.

Target,log2 fold change [1],log2 fold change (volasertib),log2 fold change [2],log2 fold change (epoxomicin),log2 fold change [3],log2 fold change [4],log2 fold change [5],log2 fold change (rosiglitazone),log2 fold change [6],log2 fold change [7]
HELQ (UniProt Q8TDG4),inactive: 0.104,inactive: 0.134,inactive: 0.099,inactive: 0.051,inactive: 0.004,inactive: 0.056,inactive: 0.084,inactive: -0.11,inactive: -0.036,inactive: 0.056
HECTD3 (UniProt Q5T447),inactive: -0.08,inactive: 0.027,inactive: -0.004,inactive: 0.006,inactive: 0.022,–,inactive: 0.021,inactive: 0.007,inactive: 0.03,–
GTF2F2 (UniProt P13984),inactive: -0.011,inactive: -0.032,inactive: 0.029,inactive: 0.027,inactive: -0.004,inactive: -0.011,inactive: 0.008,inactive: 0.034,inactive: -0.064,inactive: -0.042
HAUS6 (UniProt Q7Z4H7),inactive: 0.05,inactive: -0.412,inactive: 0.053,inactive: -0.103,inactive: 0.001,–,–,inactive: -0.079,inactive: 0.28,–
HEBP1 (UniProt Q9NRV9),inactive: 0.101,inactive: 0.21,inactive: 0.061,inactive: -0.268,inactive: 0.282,inactive: 0.069,inactive: -0.073,inactive: -0.029,inactive: -0.233,inactive: -0.109
GSS (UniProt P48637),inactive: 0.017,inactive: 0.044,inactive: -0.049,inactive: -0.026,inactive: -0.007,inactive: -0.002,inactive: -0.009,inactive: 0.002,inactive: -0.046,inactive: -0.036
GTF2E1 (UniProt P29083),inactive: -0.267,active: -0.567,inactive: 0.096,inactive: -0.015,–,inactive: 0.023,inactive: 0.072,–,inactive: -0.034,inactive: -0.084
GTSE1 (UniProt Q9NYZ3),inactive: -0.465,inactive: -0.333,inactive: 0.023,inactive: -0.076,inactive: 0.088,inactive: -0.074,inactive: 0.01,inactive: -0.193,inactive: 0.002,inactive: -0.129
GTF2F1 (UniProt P35269),inactive: 0.021,inactive: -0.009,inactive: -0.015,inactive: 0.009,inactive: -0.006,inactive: -0.021,inactive: 0.014,inactive: 0.009,inactive: -0.038,inactive: -0.051
HAUS1 (UniProt Q96CS2),inactive: 0.002,inactive: -0.102,inactive: -0.036,inactive: -0.039,inactive: -0.016,inactive: 0.019,inactive: 0.005,inactive: 0.089,inactive: 0.183,inactive: 0.048
GUK1 isoform 2 (UniProt Q16774),inactive: -0.116,inactive: 0.081,inactive: 0.097,inactive: 0.12,–,inactive: -0.167,inactive: 0.049,–,inactive: 0,inactive: 0.071
GSTM2 (UniProt P28161),inactive: 0.059,inactive: 0.039,inactive: 0.041,inactive: 0.113,inactive: 0.021,inactive: -0.119,inactive: 0.038,inactive: 0.008,–,inactive: -0.081
H1-4 (UniProt P10412),inactive: 0.136,inactive: 0.244,inactive: -0.026,inactive: -0.345,inactive: 0.017,inactive: 0.205,inactive: -0.088,inactive: -0.188,inactive: 0.342,inactive: 0.317
HEBP2 (UniProt Q9Y5Z4),inactive: 0.011,inactive: -0.011,inactive: 0.024,inactive: 0.026,inactive: 0.017,inactive: -0.052,inactive: -0.038,inactive: 0.033,inactive: -0.035,inactive: 0
H2AZ1 (UniProt P0C0S5),inactive: 0,inactive: 0.065,inactive: -0.084,inactive: -0.311,–,inactive: 0.103,inactive: -0.071,–,inactive: 0.435,inactive: 0.026
